Assay results as given in publication PMC5859151.
No constants are given. Whether binding was seen depends on the method and setting. Binding seen in cells or lysates may run through a third protein. Some binding calls cover weakened binding; strength is not graded here. For some assays here: Where a sequence is shown, tags or fusion partners need not be part of it. One block for each molecule: values may come before it.

The chains behind the UniProt entries cited, without tags or fusion partners. Where a name states a change or a piece, a line headed by the entry shows the natural chain unless it says otherwise. A line that says so, or that is headed by a name, gives the form on record, which may keep a tag or linker.
UniProt Q99942: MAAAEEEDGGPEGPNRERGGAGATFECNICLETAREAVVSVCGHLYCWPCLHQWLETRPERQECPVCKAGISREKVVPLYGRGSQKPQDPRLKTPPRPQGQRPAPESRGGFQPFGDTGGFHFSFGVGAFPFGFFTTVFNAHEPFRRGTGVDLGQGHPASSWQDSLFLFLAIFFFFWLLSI
CFTRΔF508, full-length, produced in TNT T7 coupled reticulocyte lysate (P13569, form named): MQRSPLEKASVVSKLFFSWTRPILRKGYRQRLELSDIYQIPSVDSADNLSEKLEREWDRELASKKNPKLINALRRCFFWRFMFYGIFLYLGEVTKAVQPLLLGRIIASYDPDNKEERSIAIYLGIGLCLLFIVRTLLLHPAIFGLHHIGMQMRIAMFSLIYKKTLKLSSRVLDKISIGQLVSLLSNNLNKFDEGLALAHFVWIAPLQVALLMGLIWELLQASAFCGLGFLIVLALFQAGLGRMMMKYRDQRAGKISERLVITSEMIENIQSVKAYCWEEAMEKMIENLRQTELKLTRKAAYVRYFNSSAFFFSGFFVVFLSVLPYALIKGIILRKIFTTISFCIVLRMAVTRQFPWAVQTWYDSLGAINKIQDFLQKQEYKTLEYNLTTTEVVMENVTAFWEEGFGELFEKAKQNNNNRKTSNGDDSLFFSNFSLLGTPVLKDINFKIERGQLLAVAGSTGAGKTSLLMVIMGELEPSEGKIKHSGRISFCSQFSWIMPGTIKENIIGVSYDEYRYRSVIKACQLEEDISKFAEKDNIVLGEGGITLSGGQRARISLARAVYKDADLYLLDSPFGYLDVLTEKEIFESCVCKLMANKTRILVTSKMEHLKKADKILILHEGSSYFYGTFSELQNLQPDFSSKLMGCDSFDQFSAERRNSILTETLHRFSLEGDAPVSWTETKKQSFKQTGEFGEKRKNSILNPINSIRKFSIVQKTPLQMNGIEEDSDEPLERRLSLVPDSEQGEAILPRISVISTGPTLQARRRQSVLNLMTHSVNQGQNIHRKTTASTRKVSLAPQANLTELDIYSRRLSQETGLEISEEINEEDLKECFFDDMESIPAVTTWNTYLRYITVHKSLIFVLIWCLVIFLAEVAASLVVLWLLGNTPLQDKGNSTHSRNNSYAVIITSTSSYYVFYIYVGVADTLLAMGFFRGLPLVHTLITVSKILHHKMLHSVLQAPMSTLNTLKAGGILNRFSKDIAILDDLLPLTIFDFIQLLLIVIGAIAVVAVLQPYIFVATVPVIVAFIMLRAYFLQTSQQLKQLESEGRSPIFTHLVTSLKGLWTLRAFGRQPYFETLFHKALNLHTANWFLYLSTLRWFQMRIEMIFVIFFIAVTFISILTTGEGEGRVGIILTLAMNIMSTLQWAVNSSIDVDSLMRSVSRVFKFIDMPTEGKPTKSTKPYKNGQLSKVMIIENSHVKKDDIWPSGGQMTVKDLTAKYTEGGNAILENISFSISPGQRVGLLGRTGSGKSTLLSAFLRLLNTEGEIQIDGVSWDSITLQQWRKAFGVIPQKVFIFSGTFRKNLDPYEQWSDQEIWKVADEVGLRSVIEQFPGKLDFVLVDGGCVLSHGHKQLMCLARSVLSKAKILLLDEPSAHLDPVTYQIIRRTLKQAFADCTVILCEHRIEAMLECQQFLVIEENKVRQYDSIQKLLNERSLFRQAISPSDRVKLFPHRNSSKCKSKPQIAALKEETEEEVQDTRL

Key:
[1] = target: T1, VIMP (Selenoprotein S), endogenous (human (endogenous in CFBE41o−-CFTRΔF508 cells; cell line of Fig. 4A not stated)) (UniProt Q9BQE4); experiment: co-IP; extracts of CFBE41o−-CFTRΔF508 cells; IP with anti-VIMP or anti-CFTR antibody (pre-immune IgG as control), Protein A/G Dynabeads; lysis buffer 50 mM HEPES, 150 mM NaCl, 1 mM EDTA, 1% NP40, 10% glycerol; immunoblotting
T1 sequence (chain, selenocysteine (position not printed)): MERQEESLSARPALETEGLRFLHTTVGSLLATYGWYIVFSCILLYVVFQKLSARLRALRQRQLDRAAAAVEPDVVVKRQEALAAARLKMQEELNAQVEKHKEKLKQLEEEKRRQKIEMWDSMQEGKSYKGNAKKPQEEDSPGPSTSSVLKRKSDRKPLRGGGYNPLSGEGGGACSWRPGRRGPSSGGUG

[2] = target: T1, VIMP (Selenoprotein S), endogenous (human (endogenous in CFBE41o−-CFTRΔF508 cells; cell line of Fig. 4A not stated)); experiment: co-IP; endogenous proteins in cell extracts (cell line not stated); reciprocal IP with anti-VIMP or anti-RNF5 antibody (pre-immune IgG as control); immunoblotting
[3] = target: RNF5 E3 ubiquitin ligase, endogenous (human (endogenous; cell line not stated, only human lines are used in the paper)) (UniProt Q99942); experiment: as above
[4] = target: CFTRΔF508 expressed in CFBE41o− cells (human) (UniProt P13569); experiment: co-IP; extracts of CFBE41o−-CFTRΔF508 cells; IP with anti-VIMP or anti-CFTR antibody (pre-immune IgG as control), Protein A/G Dynabeads; lysis buffer 50 mM HEPES, 150 mM NaCl, 1 mM EDTA, 1% NP40, 10% glycerol; immunoblotting
[5] = target: CFTRΔF508, full-length, produced in TNT T7 coupled reticulocyte lysate (human) (UniProt P13569); experiment: co-IP; CFTRΔF508 and Flag-VIMP made together in TNT T7 coupled reticulocyte lysate (30 °C, 90 min), diluted with cell lysis buffer; IP with anti-CFTR antibody and Protein G Dynabeads at room temperature for 1 h; immunoblotting with anti-VIMP and anti-CFTR

- binding [1]: binds
Molecule: CFTRΔF508 expressed in CFBE41o− cells (from UniProt P13569 1-1480)

- binding [2]: binds
Molecule: RNF5 E3 ubiquitin ligase, endogenous (from UniProt Q99942 1-180) (enzyme)

- binding [3]: binds
- binding [4]: binds
B1: VIMP (Selenoprotein S), endogenous (protein, UniProt Q9BQE4 1-189)
chain: T1 sequence (chain, selenocysteine (position not printed))
modifications: selenocysteine (position not given)

- binding [5]: binds
B2: Flag-VIMP, full-length, produced in TNT T7 coupled reticulocyte lysate (protein, UniProt Q9BQE4 1-189)
chain: T1 sequence (chain, selenocysteine (position not printed))
